# Source: the supplement of paper PMC12823440, “Inhibitors supercharge kinase turnover through native proteolytic circuits” (Nature, 2025)
# Protein sequences, listed by entry. Tags and fused reporters are not part of them. Lines headed by an entry give the natural chain unless they say otherwise; changes in a name come on top.
# UniProt Q12851: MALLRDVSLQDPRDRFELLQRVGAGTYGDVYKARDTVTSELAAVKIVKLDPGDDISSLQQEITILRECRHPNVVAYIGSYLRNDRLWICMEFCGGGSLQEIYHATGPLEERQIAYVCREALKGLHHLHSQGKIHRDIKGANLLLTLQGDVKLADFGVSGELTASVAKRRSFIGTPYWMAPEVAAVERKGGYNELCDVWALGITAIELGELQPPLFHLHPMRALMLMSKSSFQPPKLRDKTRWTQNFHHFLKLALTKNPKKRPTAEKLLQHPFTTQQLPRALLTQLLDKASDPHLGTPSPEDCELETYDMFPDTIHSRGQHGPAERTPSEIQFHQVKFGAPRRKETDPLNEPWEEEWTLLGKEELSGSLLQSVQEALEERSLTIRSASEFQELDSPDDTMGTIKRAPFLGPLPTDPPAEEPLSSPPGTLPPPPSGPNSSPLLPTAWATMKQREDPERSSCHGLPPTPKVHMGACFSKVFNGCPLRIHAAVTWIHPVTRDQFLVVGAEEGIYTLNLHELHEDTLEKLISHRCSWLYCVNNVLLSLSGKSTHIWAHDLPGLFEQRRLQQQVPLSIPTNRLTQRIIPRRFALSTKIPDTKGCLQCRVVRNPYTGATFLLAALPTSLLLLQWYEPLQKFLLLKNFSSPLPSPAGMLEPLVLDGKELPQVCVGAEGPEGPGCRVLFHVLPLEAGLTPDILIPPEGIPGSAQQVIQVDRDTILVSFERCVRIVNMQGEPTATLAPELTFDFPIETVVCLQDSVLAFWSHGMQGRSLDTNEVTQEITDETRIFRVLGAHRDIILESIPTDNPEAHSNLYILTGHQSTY
# UniProt P28482, whole entry: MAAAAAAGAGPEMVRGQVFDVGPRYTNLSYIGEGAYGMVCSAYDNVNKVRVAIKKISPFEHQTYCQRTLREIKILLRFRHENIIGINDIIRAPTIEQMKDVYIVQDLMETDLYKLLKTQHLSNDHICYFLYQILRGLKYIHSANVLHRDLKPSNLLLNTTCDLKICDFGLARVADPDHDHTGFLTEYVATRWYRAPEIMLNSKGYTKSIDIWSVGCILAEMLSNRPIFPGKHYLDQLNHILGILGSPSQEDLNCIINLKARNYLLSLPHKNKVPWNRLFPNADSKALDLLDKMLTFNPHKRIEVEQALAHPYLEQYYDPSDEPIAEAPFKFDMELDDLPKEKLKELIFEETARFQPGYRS
# Structures can show the parent of a compound that is named as a salt. Some of the results follow. The calls rarely recur for the same compound in another form.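 In K562 cells expressing nanoluciferase-fused kinases, luminescence was recorded at 4 h intervals between 2 and 18 h, normalized as percent of control with DMSO at 100% and a positive control at 0%. A significant (2 sigma) signal drop marks a time point as decreased. The authors' rule for a hit is not shown and takes in more than the number of time points.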
# Molecular target: MAP4K2 (UniProt Q12851)
# Experiment: number of time points (of 5) at which kinase-Nluc abundance scored as decreased, DMSO-normalised (count); higher = more persistent destabilization
# Settings: K562; 2-18 h
row,SMILES,number of time points
1,Nc1nc2ccc(Cl)cc2c2nc(-c3ccco3)nn12 (10 µM),0
2,O=C(CSC1=NCCN1)NC1CCCCCC1 [ICCB-19 (hydrochloride)] (2.5 µM),0
3,O=Nc1c(-c2c(O)[nH]c3ccc(I)cc23)[nH]c2ccccc12 [5-Iodo-indirubin-3'-monoxime] (10 µM),0
4,Nc1nc(F)nc2c1ncn2[C@@H]1O[C@H](CO)[C@@H](O)[C@@H]1O [Fludarabine] (10 µM),0
5,Cc1cc(=O)oc2c(C=O)c(O)ccc12 (10 µM),0
6,C[C@@H]1CC[C@@H](Nc2nc(NC(C)(C)C)ncc2C(N)=O)C[C@H]1O (10 µM),0
7,NC(=O)c1nc(Nc2ccccc2)sc1NC(=O)C1CCCCC1 (10 µM),0

# Molecular target: MAPK1 (UniProt P28482)
# Experiment: as above
# Settings: K562; 2-18 h
row,SMILES,number of time points
1,FC(F)(c1ccc2ncccc2c1)c1nnc2ccc(-c3ccncc3)nn12 (10 µM),0
2,COc1ccc(-c2ccc3c(N4CCOCC4)nc(N4C[C@@H](C)O[C@@H](C)C4)nc3n2)cc1CO (2.5 µM),0
3,C=CC(=O)Nc1ccc(CN2C(=O)N(c3cc(OC)cc(OC)c3)Cc3cnc(Nc4ccc(N5CCN(C)CC5)cc4)nc32)cc1 (2.5 µM),0
4,O=C1NC(=O)/C(=C\c2cccc(C(F)(F)F)c2)S1 (2.5 µM),0
5,CN(C)C(=O)Cn1cc(-c2ccc(-c3cncc4ccccc34)cc2)cn1 (10 µM),0
6,COc1ccccc1-c1cc(Nc2cccc(CS(N)(=O)=O)c2)ncn1 (10 µM),0
7,C[C@@H]1COCCN1c1cc(C2([S@@](C)(=N)=O)CC2)nc(-c2ccnc3[nH]ccc23)n1 [(S)-Ceralasertib] (10 µM),0
8,c1cc(-c2c[nH]c3nccc(N4CCC[C@@]5(CCCCN5)C4)c23)ncn1 (10 µM),0
9,Cc1ccc2nc(NCCN)c3ncc(C)n3c2c1 (2.5 µM),0
10,C=CC(=O)Nc1cccc(Nc2nc(Nc3ccc(NC4CN(CCF)C4)cc3OC)ncc2C(F)(F)F)c1 (2.5 µM),0
11,COc1ncc(Cl)cc1S(=O)(=O)Nc1ccc(F)c(C#Cc2cnc(N)nc2)c1F (2.5 µM),0
12,C=CC(=O)Nc1cccc(Nc2nc(Nc3ccc(N4CCN(C(C)=O)CC4)cc3OC)ncc2C(F)(F)F)c1 [Rociletinib hydrobromide] (10 µM),0
13,C[C@@]1(c2ncncc2F)NC(=O)c2cc(-c3cn[nH]c3)ccc21 (10 µM),0
14,Cc1[nH]c(/C=C2\C(=O)Nc3ccc(F)cc32)c(C)c1C(=O)N[C@H]1CCN(C(=O)N(C)C)C1 [Vorolanib] (10 µM),0
15,NC(=O)c1ccc(-c2nc(-c3ccc4c(c3)OCCO4)c(-c3ccccn3)[nH]2)cc1 (10 µM),0
16,Cc1ccc2cc(-c3c(C)ccc(C(=O)c4c(-c5ccccc5)n(C)n(-c5ccccc5)c4=O)c3N)ccc2n1 (2.5 µM),0
17,OCCn1cc(-c2ccc3c(c2)CC/C3=N\O)c(-c2ccncc2)n1 (10 µM),0
18,NCCNS(=O)(=O)c1cccc2c(Cl)cccc12 [A-3 (hydrochloride)] (10 µM),0
19,COc1cccc(OC)c1C(=O)OCc1cc(O)ccc1O[C@@H]1O[C@H](CO)[C@@H](O)[C@H](O)[C@H]1O [Curculigoside] (10 µM),0
20,CC#CC(=O)N1CC[C@@H](n2c(=O)n(-c3ccc(Oc4ccccc4)cc3)c3c(N)ncnc32)C1 [Tirabrutinib] (10 µM),0

row,SMILES,number of time points
1,CC1=C(C(=O)O)N2C(=O)[C@@H](NC(=O)[C@H](N)C3=CCC=CC3)[C@H]2SC1 [Cephradine] (10 µM),0
2,CC(C)(C)c1nc(-c2cccc(NS(=O)(=O)c3c(F)cccc3F)c2F)c(-c2ccnc(N)n2)s1 [Dabrafenib] (2.5 µM),0
3,COc1cc2c(N3CCN(C(=O)Nc4ccc(OC(C)C)cc4)CC3)ncnc2cc1OCCCN1CCCCC1 [Tandutinib] (10 µM),0
4,Nc1cc(C(F)(F)F)c(-c2cc(N3CCOCC3)nc(N3CCOCC3)n2)cn1 [Buparlisib (Hydrochloride)] (2.5 µM),0
5,Cn1cc(-c2ccc3c(c2)CCN3C(=O)Cc2cccc(C(F)(F)F)c2)c2c(N)ncnc21 (2.5 µM),0
6,O=C1NC(=O)/C(=C/c2ccc3nccnc3c2)S1 (10 µM),0
7,Cn1ncc(Cl)c1-c1cc(C(=O)N[C@H](CN)Cc2ccc(F)c(F)c2)oc1Cl [Uprosertib] (10 µM),0
8,COCCNc1nc2ccc(C#CC3(O)CCCCC3)cc2n1-c1ccnc(N)n1 (10 µM),0
9,CC(=O)NC1CC(n2cnc(NC(=O)Cc3ccc4ccccc4c3)c2)C1 (stereo unspecified) (10 µM),0
10,COc1cc(Nc2ncc(F)c(Nc3ccc4c(n3)NC(=O)C(C)(C)O4)n2)cc(OC)c1OC (10 µM),0
11,C=C(CC[C@@H](C(=O)O)[C@H]1[C@H](O)C[C@@]2(C)C3=C(CC[C@]12C)[C@@]1(C)CC[C@H](OC(C)=O)C(C)(C)[C@@H]1CC3)C(C)C [Pachymic acid] (10 µM),0
12,O=C(NOCC(O)CO)c1cc(Br)c(F)c(F)c1Nc1ccc(I)cc1F (stereo unspecified) (2.5 µM),0
13,Nc1nc2ccc(Cl)cc2c2nc(-c3ccco3)nn12 (10 µM),0
14,O=C(CSC1=NCCN1)NC1CCCCCC1 [ICCB-19 (hydrochloride)] (2.5 µM),0
15,O=Nc1c(-c2c(O)[nH]c3ccc(I)cc23)[nH]c2ccccc12 [5-Iodo-indirubin-3'-monoxime] (10 µM),0
16,Nc1nc(F)nc2c1ncn2[C@@H]1O[C@H](CO)[C@@H](O)[C@@H]1O [Fludarabine] (10 µM),0
17,Cc1cc(=O)oc2c(C=O)c(O)ccc12 (10 µM),0
18,C[C@@H]1CC[C@@H](Nc2nc(NC(C)(C)C)ncc2C(N)=O)C[C@H]1O (10 µM),0
19,NC(=O)c1nc(Nc2ccccc2)sc1NC(=O)C1CCCCC1 (10 µM),0
